Measured values as given in PubChem BioAssay (NCATS).
“And” between values parts separate entries of the source, which are not always exact repeats. Equal entries are not always repeated. This is one part of the list. Further columns of the screen follow, without active or inactive calls. The list favours compounds with an active or inconclusive main result. The note in brackets gives the kind of curve behind each potency; many fits are weak.

Key:
[1] = Validation of Assay for Modulators of Lamin A Splicing (AID 1459); settings: Lamin A splicing dual RFP/GFP fluorescence reporter, ratio
How it was run: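 HeLa S3 lamin A-EGFP/DsRed2 stable clone, 600 cells/well, Opti-MEM 2% FBS; compounds by pin tool; 48 hrs, 37 °C/5% CO2; Acumen 488 nm scan, objects 10-100 um; GFP/RFP intensity ratio.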

[2] = qHTS Assay for Lipid Storage Modulators (AID 1519); settings: Drosophila S3 cells, BODIPY lipid droplet/cell ratio, laser cytometry, cells loaded with oleic acid
How it was run: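 Cells seeded at 5,000 per well were treated with compounds over a concentration series and loaded with oleic acid (400 uM, as added). Lipid droplet fluorescence (488 nm excitation, 500-530 nm channel) was read by laser-scanning cytometry and normalized to 20 uM Triacsin C.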

[3] = qHTS Assay for Modulators of Human Peripheral Myelin Protein 22 (PMP22) Expression/Activity (AID 1967); settings: Cell-based PMP22 reporter, dual-color luciferase ratio
How it was run: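 Luminescence ratio of Pmp22 promoter-driven green luciferase to EF-alpha-driven red luciferase, in engineered mouse MSC80 Schwann cells, served as read-out. Compounds were incubated 24h; untreated cells defined 0% Activity; curves were classified by r2, magnitude and activity.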

[4] = qHTS Validation Assay to Find Inhibitors of Chronic Active B-Cell Receptor Signaling (AID 485345); settings: ABC-DLBCL cells, chronic BCR signaling reporter
How it was run: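 Read-out: ratio of filter-corrected green (IkappaBalpha fusion) to red (native) luciferase signal in doxycycline-induced TMD8 cells after 4 h at 37C. Titration spanned 46 uM–3 nM; Data were normalised to basal cells and 10 uM MG-132 wells.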

[5] = qHTS for identification of novel therapeutic agents for treatment of microphthalmiaassociated transcription factor (MiT) renal cell carcinoma (RCC) (AID 1963991); settings: CellTiter-Glo, 48 h; for z-score: stronger effect = lower value;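 for z-score: curves scaled with 100% = DMSO viability and 0% = empty wells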
How it was run: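 UOK109/UOK124/UOK145 (TFE3 fusions, three partners); 500 cells/well; MIPE v4.0, 1912 cpds, 11 conc.; 48 h, 37 C; CellTiter-Glo, 15 min RT; lum. Norm.: DMSO 100%, empty 0%.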

[6] = A High-Content qHTS Against Drug Library for the Identification of Small Molecules that Inhibit DYT1 Early Onset Primary Dystonia-Associated Cell Pathology (AID 1645839); settings: HEK293 Flp-In EGFP-delE TorsinA, punctate imaging, 48 h; measured here: cell count cytotoxicity
How it was run: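 In this high-content image screen, delE TorsinA mislocalization in inducible Flp-In 293 cells is scored as %pathology, with cell count serving as the counterscreen. Compound exposure lasts 48 h under tetracycline induction in reduced-serum medium.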

[7] = Nrf2 qHTS screen for inhibitors: Validation (AID 493153); settings: A549 ARE-Fluc reporter, 18-24 h; AC50: CellTiter-Fluor fluorescence read, measured here: cytotoxicity CellTiter-Fluor AC50; viability change: measured here: cytotoxicity max response
How it was run: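 A549 cells carrying an ARE-driven firefly luciferase reporter, in 5% FBS OPTI-MEM, were treated with compounds in concentration-response for 18-24 h at 37°C. Viability was read by CellTiter-Fluor fluorescence, then Nrf2 activity by luciferase luminescence.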

[8] = measured here: cell count channel max response
[9] = measured here: lipid channel max response
[10] = measured here: green reporter channel AC50, mouse Pmp22 promoter in mouse Schwann cells
[11] = measured here: red reporter channel AC50, EF-alpha promoter control reporter in MSC80 mouse Schwann cells
[12] = measured here: CBG/CBR ratio read-out
[13] = measured here: cell number channel AC50
[14] = measured here: lipid (BODIPY) channel AC50
[15] = measured here: CBR control luciferase (viability counter)

Q: With `Cc1ccccc1/C=C/C1=NCCN1` as the compound, how does the AC50 ([1]; measured here: GFP channel) read?
A: 25.1 µM [falling, single point]

Q: And the AC50 ([1]; measured here: RFP channel)?
A: 35.5 µM [falling, single point]

Q: What about the max response [2, 8] of the same compound?
A: 39.3%

Q: And the max response [2, 9]?
A: 40.8%

Q: What about the AC50 [3, 10] of the same compound?
A: 67.5 µM [falling, partial curve, poor fit]

Q: And the AC50 [3, 11]?
A: 60.1 µM [falling, partial curve, poor fit]

Q: And the AC50 [4, 12]?
A: 14.6 µM [falling, single point]

Q: Which AC50 ([1]; measured here: GFP channel) does the source give for `N=c1ccn2c(n1)O[C@H]1[C@@H](O)[C@@H](CO)O[C@H]12` here?
A: 0.141 µM [falling, full curve]

Q: And the AC50 ([1]; measured here: RFP channel)?
A: 0.141 µM [falling, full curve]

Q: And the max response [2, 8]?
A: 30.5%

Q: What about the max response [2, 9] of the same compound?
A: 31.1%

Q: And the AC50 [3, 10]?
A: 84.9 µM [falling, single point]

Q: What about the AC50 [3, 11] of the same compound?
A: 15.1 µM [falling, full curve]

Q: And the z-score ([5]; TFE3-RCC UOK109 viability, measured here: UOK109 Z-AUC)?
A: -0.193

Q: What about the z-score ([5]; TFE3-RCC viability, measured here: UOK124 Z-AUC) of the same compound?
A: -0.455

Q: What about the AC50 ([5]; TFE3-RCC viability, measured here: UOK124 cell viability) of the same compound?
A: 1.87 µM [falling, full curve]

Q: And the z-score ([5]; TFE3-RCC viability, measured here: UOK145 Z-AUC)?
A: -1.74

Q: And the AC50 ([5]; TFE3-RCC viability, measured here: UOK145 cell viability)?
A: 1.87 µM [falling, partial curve]

Q: Which results are given for `COc1cc2c(cc1O)CCC1C2CC[C@]2(C)[C@@H](O)CC[C@@H]12` (some centres not stated)?
A: AC50 ([1]; measured here: GFP channel): 10 µM [falling, partial curve, poor fit]; AC50 ([1]; measured here: RFP channel): 10 µM [falling, partial curve, poor fit]; max response [2, 8]: -23.8%; max response [2, 9]: -45.9%; AC50 [3, 11]: 2.69 µM [falling, full curve]

Q: Which results are given for `C[C@@H](Oc1ccc(Oc2cnc3ccc(Cl)cc3n2)cc1)C(=O)O`?
A: AC50 ([1]; measured here: GFP channel): 12.6 µM [falling, single point]; AC50 ([1]; measured here: RFP channel): 1.26 µM [rising, partial curve, poor fit]; AC50 [3, 11]: 33.8 µM [falling, partial curve]

Q: What does the source list for `CNCCC(Oc1ccccc1C)c1ccccc1` (configuration not stated)?
A: AC50 ([1]; measured here: GFP channel): 35.5 µM [falling, single point]; AC50 ([1]; measured here: RFP channel): 35.5 µM [falling, single point]; AC50 [3, 10]: 84.9 µM [falling, single point]; AC50 [3, 11]: 84.9 µM [falling, single point]

Q: For `Cc1ccc(/C(=C\CN2CCCC2)c2ccccn2)cc1`, which AC50 ([1]; measured here: GFP channel) is on record?
A: 25.1 µM [falling, single point]

Q: And the AC50 ([1]; measured here: RFP channel)?
A: 25.1 µM [falling, single point]

Q: What about the AC50 [3, 11] of the same compound?
A: 2.69 µM [rising, full curve, poor fit]

Q: With `CN(C)c1nc2c(Br)c(Br)c(Br)c(Br)c2[nH]1` as the compound, how does the AC50 ([1]; measured here: RFP channel) read?
A: 0.891 µM [falling, full curve, poor fit]

Q: What about the max response [2, 8] of the same compound?
A: 50.3%

Q: And the AC50 [2, 13]?
A: 35.5 µM [rising, partial curve, poor fit]

Q: And the AC50 [2, 14]?
A: 31.6 µM [rising, partial curve, poor fit]

Q: And the max response [2, 9]?
A: 51.9%

Q: What about the AC50 [3, 10] of the same compound?
A: 67.5 µM [falling, partial curve, poor fit]

Q: And the AC50 [3, 11]?
A: 42.6 µM [falling, partial curve]

Q: What about the AC50 [4, 15] of the same compound?
A: 8.2 µM [falling, partial curve]

Q: What does the source list for `CO/N=C(\C(=O)N[C@@H]1C(=O)N2C(C(=O)O)=C(COC(C)=O)CS[C@H]12)c1csc(N)n1` (stereo in doubt)?
A: AC50 ([1]; measured here: GFP channel): 14.1 µM [rising, partial curve, poor fit]; max response [2, 8]: 38.3%; max response [2, 9]: 37.6%

Q: With `CC(C)NC[C@@H](O)COc1cccc2ccccc12` as the compound, how does the AC50 ([1]; measured here: GFP channel) read?
A: 31.6 µM [rising, single point]

Q: What about the max response [2, 8] of the same compound?
A: 14.8% and 26.9% and 38.1%

Q: And the AC50 [2, 13]?
A: 15.8 µM [rising, single point]

Q: What about the AC50 [2, 14] of the same compound?
A: 20 µM [rising, single point] and 35.5 µM [rising, single point]

Q: What about the max response [2, 9] of the same compound?
A: 24.3% and 46.6% and 42.8%

Q: What about the AC50 [3, 10] of the same compound?
A: 75.7 µM [falling, partial curve]

Q: What about the AC50 [3, 11] of the same compound?
A: 84.9 µM [falling, single point]

Q: What about the AC50 [6] of the same compound?
A: 35.5 µM [falling, single point]

Q: With `CCC1(O)CC2CN(CCc3c([nH]c4ccccc34)[C@@](C(=O)OC)(c3cc4c(cc3OC)N(C=O)C3[C@]45CCN4CC=C[C@@](CC)([C@@H](OC(C)=O)[C@]3(O)C(=O)OC)[C@H]45)C2)C1` (some centres not stated) as the compound, how does the AC50 ([1]; measured here: GFP channel) read?
A: 0.02 µM [falling, full curve, poor fit]

Q: What about the AC50 ([1]; measured here: RFP channel) of the same compound?
A: 0.0447 µM [falling, full curve, poor fit]

Q: And the AC50 [3, 10]?
A: 84.9 µM [falling, single point]

Q: And the AC50 [3, 11]?
A: 95.3 µM [falling, single point]

Q: And the AC50 [4, 12]?
A: 0.731 µM [falling, full curve]

Q: What about the AC50 [4, 15] of the same compound?
A: 1.84 µM [rising, full curve]

Q: And the AC50 [7]?
A: 1.3 µM [falling, full curve]

Q: What about the viability change [7] of the same compound?
A: -30%

Q: For `CN(C)c1ccc(/C=C2\C(=O)Nc3ccccc32)cc1`, which AC50 ([1]; measured here: GFP channel) is on record?
A: 35.5 µM [falling, single point]

Q: And the AC50 ([1]; measured here: RFP channel)?
A: 11.2 µM [falling, partial curve, poor fit]

Q: What about the AC50 [3, 11] of the same compound?
A: 53.6 µM [falling, partial curve, poor fit]

Q: And the AC50 [4, 12]?
A: 4.11 µM [falling, single point]

Q: And the AC50 [4, 15]?
A: 14.6 µM [falling, partial curve]

Q: What about the AC50 [7] of the same compound?
A: 14.6 µM [falling, partial curve, poor fit]

Q: What about the viability change [7] of the same compound?
A: -23.6%
